The list shows a part of the results. The main result of the screen is listed elsewhere. These columns were measured beside it and carry no call. Most of these compounds were active or inconclusive in the main read-out, so they are no random draw. Words in brackets tell the shape of the fitted curve; partial curves, single points and poor fits give uncertain potencies.
Experiment: qHTS Assay for Lipid Storage Modulators in Drosophila S3 Cells;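 on cell number change: cells counted by Cell Tracker Red CMTPX staining in the red channel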
Details: BODIPY lipid droplet fluorescence, 18-24 h; for cell number change: measured here: cell count max response, cells fed with added oleic acid
Method in brief: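 Laser-scanning cytometry quantifies lipid droplet accumulation (500–530 nm total intensity; droplet/cell object ratio) in oleic acid-fed (400 uM added) Drosophila S3 cells treated with a concentration series. 20 uM Triacsin C defined 100% inhibition.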

[1] = measured here: cell number channel AC50, cells fed with added oleic acid
[2] = measured here: lipid fluorescence (Fed channel) AC50, cells fed with added oleic acid

SMILES | cell number change | AC50 [1] | AC50 [2]
COc1cccc(NC(=O)CN(C)C(=O)CNC(=O)c2ccc(Oc3ccccc3)cc2)c1 | -6.43% | – | –
C=C(C)C1CC=C(C)/C(=N/NC(=O)c2ccc(NC(=O)CCC)cc2)C1 (stereo not drawn) | 30.2% | 29.1 µM [rising, single point] | –
CC(C)C(OC(=O)c1cccs1)C(=O)NCCc1ccccc1 (stereo not drawn) | 4.62% | – | 29.1 µM [rising, single point]
O=C(COc1ccc2c(c1)C(=O)CC1(CCCCC1)O2)NCc1ccccc1 | 16.2% | – | –
CC(C)(C)OC(=O)NN1CC(=O)N2Cc3[nH]c4ccccc4c3C[C@H]2C1=O | -36.2% | 20.6 µM [falling, single point] | –
c1ccc(CC2CNc3ccccc3CN2)cc1 (stereo not drawn) | 4.2% | – | 0.00411 µM [rising, full curve, poor fit]
O=C(CN1C(=O)S/C(=C/c2cccn2-c2ccc(O)cc2)C1=O)N1CCCC1 | -18.1% | – | –
CN1/C(=C\C=C(/C#N)C(=O)Nc2ccccc2F)C(C)(C)c2ccccc21 | 52.2% | 29.1 µM [rising, single point] | –
C=CCN(C(=O)CCC(=O)Nc1cc(C)on1)C(C(=O)NC1CCCC1)c1ccc(OC)c(OC)c1 (stereo not drawn) | -4.76% | – | 29.1 µM [falling, single point]
Nc1nnc(SCC(=O)Nc2cc(C(F)(F)F)ccc2N2CCOCC2)s1 | -79.8% | 8.2 µM [falling, partial curve] | 7.31 µM [falling, partial curve]
CCCn1c(SCC(N)=O)nnc1-c1ccco1 | -4.62% | – | –
Cc1ccc2nc(-c3ccncc3)c(NC3CCCC3)n2c1 | 70.2% | 29.1 µM [rising, single point] | 29.1 µM [rising, single point]
Nc1nc2n(n1)C(=O)CC(c1ccccc1[N+](=O)[O-])N2 (stereo not drawn) | – | 2.91 µM [falling, partial curve] | 0.092 µM [falling, full curve, poor fit]
N/N=C(\c1ccccc1)C12CN3CN(CN(C3)C1)C2 | 46% | 16.4 µM [rising, partial curve] | –
CC1CCCC(C)N1/N=C/c1cc(Br)cc(Br)c1O (stereo not drawn) | 17.5% | – | 2.06 µM [rising, full curve]
CCOC(=O)CCC(=O)O[C@H]1[C@H](O[C@@H]2[C@@H](C)[C@H](O[C@H]3C[C@@](C)(OC)[C@@H](O)[C@H](C)O3)[C@@H](C)C(=O)O[C@H](CC)[C@@](C)(O)[C@H](O)[C@@H](C)C(=O)[C@H](C)C[C@@]2(C)O)O[C@H](C)C[C@@H]1N(C)C | – | – | 0.461 µM [rising, full curve, poor fit]
O=C(/C=C/Nc1ccc([N+](=O)[O-])cc1)c1ccc(Br)cc1 | -30.4% | 8.2 µM [falling, partial curve] | 1.16 µM [rising, full curve, poor fit]
O=C(NC12CC3CC(CC(C3)C1)C2)c1cccc(OC(F)F)c1 | -31.3% | 9.2 µM [falling, single point] | 16.4 µM [falling, partial curve, poor fit]
Clc1ccc(SCCCCN2CCNCC2)cc1 | -0.402% | – | –
COC(=O)c1cc(Cl)c(NC(=O)c2ccc(F)cc2)cc1OC | -19.9% | – | –

SMILES | cell number change | AC50 [1] | AC50 [2]
Cc1cc(-c2ccccc2)c(C#N)c(=S)[nH]1 | -22.9% | 0.411 µM [rising, full curve] | –
N#Cc1cc2c(N)c(C(=O)Nc3ccccc3)sc2nc1N | 24.9% | 0.259 µM [rising, full curve, poor fit] | 0.259 µM [rising, full curve]
O=C(/C=C/c1ccccc1)Nc1ccc2c(c1)C(=O)NC2=O | 13.8% | – | 0.206 µM [rising, full curve]
CCCC(C)C(=O)Nc1ccc(Cl)cc1Cl (stereo not drawn) | 4.04% | – | 16.4 µM [rising, single point]
O=C(COc1cc(Cl)ccc1Cl)Nc1ccc2[nH]c(=O)[nH]c2c1 | -3% | – | –
CC(=O)c1cnc(-c2cccc(Cl)c2)s1 | -17.1% | – | 0.651 µM [falling, partial curve, poor fit]
O=C(Nc1cccc2c1C(=O)NC2=O)c1cccc(N2C(=O)CCC2=O)c1 | -31.4% | 6.51 µM [falling, single point] | 0.00651 µM [falling, full curve, poor fit]
O=C(c1cc(-c2ccc(Cl)c(Cl)c2)on1)N1CCOCC1 | 17.5% | – | 29.1 µM [rising, single point]
CN(Cc1ccco1)S(=O)(=O)c1cc(F)ccc1CN1C(=O)c2cccnc2C1=O | -7.03% | – | –
Cn1ncc2c(Nc3ccc(Cl)c(Cl)c3)ncnc21 | -17.8% | – | –
Cc1ccc(-n2nnnc2SCc2ccccn2)cc1C | 43.9% | 1.84 µM [rising, full curve, poor fit] | –
CCOC(=O)c1cccc(OCC(O)CNCCOc2ccccc2F)c1 (stereo not drawn) | 7.08% | – | 7.31 µM [rising, single point]
NC(=O)N=Nc1c(O)[nH]c2c(Br)cc(Br)cc12 | – | – | 6.51 µM [rising, single point]
CC(OC(=O)/C=C/c1cccc(F)c1)C(=O)NC1CCCCC1C (stereo not drawn) | 37.8% | 29.1 µM [rising, single point] | –
CCSc1nc2ccccc2c(=O)n1CCc1ccc(OC)c(OC)c1 | 0.486% | – | 0.0326 µM [rising, partial curve, poor fit]
COCCCn1c(SCC(=O)n2c(C)c(C)c3ccccc32)nnc1-c1ccoc1C | -35.2% | 0.00651 µM [falling, full curve, poor fit] | –
CSCCC(NC(N)=O)C(=O)Nc1cccc(S(=O)(=O)N2CCOCC2)c1 (stereo not drawn) | 117% | – | –
O=S(=O)(NCC1CCCO1)c1ccc(Oc2ccccc2)cc1 (stereo not drawn) | -23.1% | – | 32.6 µM [falling, single point]
Cc1cccc(NC(=O)Nc2cccc(Oc3c(F)c(F)c(F)c(F)c3F)c2)c1 | -34.8% | 13 µM [falling, partial curve, poor fit] | 29.1 µM [falling, single point]

From PubChem BioAssay AID2685 (National Center for Advancing Translational Sciences (NCATS), 2010)
